Measured values as given in patent publication US10392649B2, “Biosensors that detect NAD+” (Oregon Health & Science University, priority 2014, dated 2019).

Test system: HEK293T cells
Experiment: Free NAD+ in non-permeabilized HEK293T cells interpolated from sensor calibration
Assay type: cell-based

Structure (SMILES): NC(=O)c1ccc[n+]([C@@H]2O[C@H](COP(=O)([O-])OP(=O)(O)OC[C@H]3O[C@@H](n4cnc5c(N)ncnc54)[C@H](O)[C@@H]3O)[C@@H](O)[C@H]2O)c1 [NAD+, nicotinamide adenine dinucleotide]
- free NAD+ value, cytoplasm (cytoplasmic sensor 488/405 nm relative to cpVenus): 105.8 µM
- free nuclear NAD+ level (nuclear sensor): 108.8 µM
